{
  "source": "paper PMC10289004",
  "target": "T1, receptor-interacting protein kinase 1 (RIPK1), endogenous in mouse erythrocytes (mouse (endogenous in mouse erythrocytes)), Q60855",
  "T1 chain": "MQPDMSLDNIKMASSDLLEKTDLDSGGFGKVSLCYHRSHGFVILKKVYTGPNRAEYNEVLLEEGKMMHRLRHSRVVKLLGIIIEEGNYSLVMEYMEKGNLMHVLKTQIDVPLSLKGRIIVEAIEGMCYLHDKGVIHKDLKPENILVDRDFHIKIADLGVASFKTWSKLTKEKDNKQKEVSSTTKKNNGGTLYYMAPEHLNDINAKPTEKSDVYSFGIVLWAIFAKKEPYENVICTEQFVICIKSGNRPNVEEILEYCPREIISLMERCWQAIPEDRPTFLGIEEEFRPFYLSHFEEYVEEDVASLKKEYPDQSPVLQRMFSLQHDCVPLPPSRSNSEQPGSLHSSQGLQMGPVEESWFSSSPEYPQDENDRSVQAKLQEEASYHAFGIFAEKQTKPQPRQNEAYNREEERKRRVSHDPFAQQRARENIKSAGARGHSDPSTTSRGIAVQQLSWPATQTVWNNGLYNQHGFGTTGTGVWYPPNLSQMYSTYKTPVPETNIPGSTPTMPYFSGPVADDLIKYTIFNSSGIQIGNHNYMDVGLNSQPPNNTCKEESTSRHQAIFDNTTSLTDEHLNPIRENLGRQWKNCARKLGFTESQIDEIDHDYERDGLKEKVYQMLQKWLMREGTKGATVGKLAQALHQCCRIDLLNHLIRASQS",
  "test": "co-IP; endogenous proteins in lysates of erythrocytes from mice 24 h after LPS injection, with TMG or PBS; RIPK1 immunoprecipitated, co-immunoprecipitated RIPK3 blotted",
  "conditions": "remark: other sources report otherwise",
  "note": "These are yes or no findings as the source states them, for the method shown. Binding seen in cells or lysates may run through a third protein. Some results given as binding are weak or reduced against the parent protein; the word gives no strength.",
  "data": [
    {"binder": "receptor-interacting protein kinase 3 (RIPK3), endogenous in mouse erythrocytes, Q9QZL0 1-486 (protein) MSSVKLWPTGASAVPLVSREELKKLEFVGKGGFGVVFRAHHRTWNHDVAVKIVNSKKISWEVKAMVNLRNENVLLLLGVTEDLQWDFVSGQALVTRFMENGSLAGLLQPECPRPWPLLCRLLQEVVLGMCYLHSLNPPLLHRDLKPSNILLDPELHAKLADFGLSTFQGGSQSGSGSGSGSRDSGGTLAYLDPELLFDVNLKASKASDVYSFGILVWAVLAGREAELVDKTSLIRETVCDRQSRPPLTELPPGSPETPGLEKLKELMIHCWGSQSENRPSFQDCEPKTNEVYNLVKDKVDAAVSEVKHYLSQHRSSGRNLSAREPSQRGTEMDCPRETMVSKMLDRLHLEEPSGPVPGKCPERQAQDTSVGPATPARTSSDPVAGTPQIPHTLPFRGTTPGPVFTETPGPHPQRNQGDGRHGTPWYPWTPPNPMTGPPALVFNNCSEVQIGNYNSLVAPPRTTASSSAKYDQAQFGRGRGWQPFHK", "values": [
      {"measurement": "binding", "result": "binds"}
    ]}
  ]
}
